Laboratory results as given in article PMC2680019.
No constants are given. Whether binding was seen depends on the method and setting. In cells and extracts the contact can be indirect. Binding calls can cover weak binding; strength is not graded here. Where a sequence is shown, tags or fusion partners need not be part of it.

Experiments:
[1] = target: T1, Myc-tagged Tensin2 Δ1022-1272 (ΔSH2) (UniProt Q63HR2); assay: co-IP; HEK293T co-transfected with Myc-tagged tensin and FLAG-tagged DLC1 (or GFP-tagged DLC2); cleared lysate in NET-N buffer (25 mM Tris-HCl pH 8.0, 50 mM NaCl, 0.2 mM EDTA, 0.1% NP40); anti-Myc antibody overnight at 4°C, protein-A sepharose, 5 washes; blot with anti-FLAG (anti-GFP for DLC2)
T1 sequence: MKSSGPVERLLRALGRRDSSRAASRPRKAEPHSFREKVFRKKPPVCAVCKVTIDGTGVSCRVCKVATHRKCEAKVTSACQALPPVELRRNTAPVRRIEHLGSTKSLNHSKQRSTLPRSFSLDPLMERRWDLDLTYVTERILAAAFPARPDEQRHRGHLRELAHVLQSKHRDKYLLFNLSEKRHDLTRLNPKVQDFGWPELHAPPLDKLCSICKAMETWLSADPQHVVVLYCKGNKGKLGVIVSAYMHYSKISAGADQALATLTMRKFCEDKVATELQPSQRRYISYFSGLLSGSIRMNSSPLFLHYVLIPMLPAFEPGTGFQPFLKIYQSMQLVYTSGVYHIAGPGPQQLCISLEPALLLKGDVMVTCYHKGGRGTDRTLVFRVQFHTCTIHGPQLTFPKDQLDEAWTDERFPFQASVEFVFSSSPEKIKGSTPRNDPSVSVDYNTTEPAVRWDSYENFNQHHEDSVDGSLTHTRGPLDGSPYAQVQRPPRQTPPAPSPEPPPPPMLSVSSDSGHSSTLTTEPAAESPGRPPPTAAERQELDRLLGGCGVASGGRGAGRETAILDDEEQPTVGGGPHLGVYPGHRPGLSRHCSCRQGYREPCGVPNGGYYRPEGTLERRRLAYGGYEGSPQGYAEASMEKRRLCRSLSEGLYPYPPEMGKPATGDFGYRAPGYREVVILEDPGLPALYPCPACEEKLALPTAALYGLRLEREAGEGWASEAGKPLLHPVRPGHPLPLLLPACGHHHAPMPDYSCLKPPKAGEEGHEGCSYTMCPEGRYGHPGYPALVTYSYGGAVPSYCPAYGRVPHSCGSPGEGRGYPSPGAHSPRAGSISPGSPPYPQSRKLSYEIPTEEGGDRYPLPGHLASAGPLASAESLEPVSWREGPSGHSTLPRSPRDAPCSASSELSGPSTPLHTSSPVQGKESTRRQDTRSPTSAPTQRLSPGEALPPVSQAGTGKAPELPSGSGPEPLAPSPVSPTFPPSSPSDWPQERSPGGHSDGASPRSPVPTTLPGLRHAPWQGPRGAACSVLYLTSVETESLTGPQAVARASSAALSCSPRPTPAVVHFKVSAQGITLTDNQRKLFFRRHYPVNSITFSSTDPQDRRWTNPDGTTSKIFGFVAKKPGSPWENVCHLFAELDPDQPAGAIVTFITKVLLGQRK

[2] = target: T2, Myc-tagged Tensin2 R1165A (UniProt Q63HR2); assay: as above
T2 sequence: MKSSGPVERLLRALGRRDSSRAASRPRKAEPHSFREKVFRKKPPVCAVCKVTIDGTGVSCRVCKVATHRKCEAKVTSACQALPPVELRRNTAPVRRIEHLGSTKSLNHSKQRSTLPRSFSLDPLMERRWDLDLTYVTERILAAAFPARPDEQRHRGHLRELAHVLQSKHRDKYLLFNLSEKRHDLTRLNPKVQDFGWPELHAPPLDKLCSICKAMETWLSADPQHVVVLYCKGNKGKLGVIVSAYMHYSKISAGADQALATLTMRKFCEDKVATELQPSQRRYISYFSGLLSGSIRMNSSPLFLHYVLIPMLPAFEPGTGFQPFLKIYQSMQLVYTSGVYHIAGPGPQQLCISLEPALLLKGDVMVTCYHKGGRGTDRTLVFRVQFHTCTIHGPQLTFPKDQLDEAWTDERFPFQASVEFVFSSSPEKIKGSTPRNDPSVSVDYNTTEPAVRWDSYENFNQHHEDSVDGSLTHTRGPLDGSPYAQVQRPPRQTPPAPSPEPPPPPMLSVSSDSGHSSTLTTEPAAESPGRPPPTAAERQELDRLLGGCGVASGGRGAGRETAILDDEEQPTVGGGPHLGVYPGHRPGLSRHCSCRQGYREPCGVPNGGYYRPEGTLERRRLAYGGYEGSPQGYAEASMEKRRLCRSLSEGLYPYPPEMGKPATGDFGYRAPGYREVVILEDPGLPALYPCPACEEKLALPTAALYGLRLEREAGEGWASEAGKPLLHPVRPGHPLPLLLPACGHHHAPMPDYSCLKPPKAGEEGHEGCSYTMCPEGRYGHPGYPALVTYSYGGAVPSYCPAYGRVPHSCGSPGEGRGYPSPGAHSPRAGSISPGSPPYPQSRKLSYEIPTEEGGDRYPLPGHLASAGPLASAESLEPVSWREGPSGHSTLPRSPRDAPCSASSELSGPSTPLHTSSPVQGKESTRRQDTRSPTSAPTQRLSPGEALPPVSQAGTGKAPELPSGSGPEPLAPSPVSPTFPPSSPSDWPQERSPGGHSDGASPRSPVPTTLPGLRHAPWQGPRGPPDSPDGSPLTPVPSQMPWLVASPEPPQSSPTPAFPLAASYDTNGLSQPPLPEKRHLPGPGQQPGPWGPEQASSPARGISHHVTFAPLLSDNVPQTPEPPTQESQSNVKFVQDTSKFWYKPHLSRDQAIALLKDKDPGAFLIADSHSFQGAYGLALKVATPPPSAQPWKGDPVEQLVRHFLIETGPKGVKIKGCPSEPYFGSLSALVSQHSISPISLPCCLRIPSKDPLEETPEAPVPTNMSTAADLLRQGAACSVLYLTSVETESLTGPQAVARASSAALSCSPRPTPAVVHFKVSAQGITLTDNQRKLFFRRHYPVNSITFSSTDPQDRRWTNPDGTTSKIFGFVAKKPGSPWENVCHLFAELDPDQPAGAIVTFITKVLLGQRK

| binding [1] | binding [2] | Substance |
| --- | --- | --- |
| binds | binds | FLAG-tagged DLC1 FL (Deleted in liver cancer 1, wild-type) (from UniProt Q96QB1-1) |
| binds | – | FLAG-tagged DLC1 1-400 (from UniProt Q96QB1-1) (domain or fragment) |
